{"sequences": {"note": "Protein sequences, listed by entry. Tags and fused reporters are not part of them. Residues count along the entry.", "UniProt P0A6X3, 2-102": "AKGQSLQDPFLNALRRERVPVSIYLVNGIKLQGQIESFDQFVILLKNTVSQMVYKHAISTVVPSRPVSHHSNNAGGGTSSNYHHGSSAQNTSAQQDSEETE"}, "source": "patent US9765332", "key": {"Hfq (Escherichia coli) [1]": {"molecular_target": "Hfq (Escherichia coli) (UniProt P0A6X3)", "test": "EMSA", "conditions": "ternary RydC-Hfq-csgD mRNA215 complex; Hfq 1:1 with RydC; nearly all RydC in complex at 1:1 mRNA; purified recombinant protein; label: 5'-32P on RydC"}, "Hfq (Escherichia coli) [2]": {"molecular_target": "Hfq (Escherichia coli) (UniProt P0A6X3)", "test": "footprint", "conditions": "Hfq binds RydC and alters reactivity at two connecting loops and H1; purified recombinant protein; label: 5'-32P"}}, "note": "For at least one entry, the source does not settle the construct or the ends of the probe."}
{"sequence": "CUUCCGAUGUAGACCCGUAUUCUUCGCCUGUACCACGGGUCGGUUUUAGUACAGGCGUUUUCUU / GAUGUAAUCCAUUAGUUUUAUAUUUUACCCAUUUAGGGCUGAUUUAUUACUACACACAGCAGUGCAACAUCUGUCAGUACUUCUGGUGCUUCUAUUUUAGAGGCAGCUGUCAGGUGUGCGAUCAAUAAAAAAAGCGGGGUUUCAUCAUGUUUAAUGAAGUCCAUAGUAUUCAUGGUCAUACAUUAUUGUUGAUCACUAAAUCUUCUUUGCAGGCG [RydC + csgD mRNA215]", "values": [{"measurement": "binding result", "setting": "Hfq (Escherichia coli) [1]", "value": "binds"}]}
{"sequence": "CUUCCGAUGUAGACCCGUAUUCUUCGCCUGUACCACGGGUCGGUUUUAGUACAGGCGUUUUCUU [RydC]", "values": [{"measurement": "binding result", "setting": "Hfq (Escherichia coli) [2]", "value": "binds"}]}
